Sequences of proteins named here, by UniProt entry; tags and fusion partners are left off. A change or cut given only in a name is not applied to a line headed by its entry. Residues count along the entry.
UniProt P19793, 246-274: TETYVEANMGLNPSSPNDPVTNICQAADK
UniProt Q9Y265, whole entry, looked up: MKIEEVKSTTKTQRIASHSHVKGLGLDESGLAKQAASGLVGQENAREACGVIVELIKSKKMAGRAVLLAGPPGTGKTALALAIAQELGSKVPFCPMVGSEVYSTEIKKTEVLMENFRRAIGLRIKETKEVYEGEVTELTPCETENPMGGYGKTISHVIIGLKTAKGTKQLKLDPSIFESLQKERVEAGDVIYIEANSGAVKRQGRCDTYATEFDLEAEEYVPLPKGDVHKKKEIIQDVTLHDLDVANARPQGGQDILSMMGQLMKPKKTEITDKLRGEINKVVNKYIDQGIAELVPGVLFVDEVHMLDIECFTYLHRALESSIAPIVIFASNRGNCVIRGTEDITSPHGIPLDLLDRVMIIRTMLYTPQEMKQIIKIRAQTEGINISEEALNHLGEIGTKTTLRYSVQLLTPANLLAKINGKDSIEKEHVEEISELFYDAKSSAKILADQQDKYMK
UniProt Q9NTJ5: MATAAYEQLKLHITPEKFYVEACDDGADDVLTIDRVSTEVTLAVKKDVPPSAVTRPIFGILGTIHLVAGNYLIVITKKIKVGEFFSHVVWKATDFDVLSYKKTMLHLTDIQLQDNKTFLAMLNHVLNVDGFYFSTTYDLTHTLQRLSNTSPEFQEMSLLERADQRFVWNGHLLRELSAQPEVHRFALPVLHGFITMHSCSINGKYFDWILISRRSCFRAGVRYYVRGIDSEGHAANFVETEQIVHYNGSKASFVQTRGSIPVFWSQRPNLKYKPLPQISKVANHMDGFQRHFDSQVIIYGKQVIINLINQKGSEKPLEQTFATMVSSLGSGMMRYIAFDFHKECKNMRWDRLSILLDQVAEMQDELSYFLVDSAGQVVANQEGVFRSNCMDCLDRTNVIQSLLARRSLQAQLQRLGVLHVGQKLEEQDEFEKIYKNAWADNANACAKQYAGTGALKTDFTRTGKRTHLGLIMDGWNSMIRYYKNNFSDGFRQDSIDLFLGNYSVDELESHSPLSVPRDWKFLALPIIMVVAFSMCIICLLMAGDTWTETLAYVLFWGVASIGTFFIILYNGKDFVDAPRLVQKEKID
UniProt Q96ER3: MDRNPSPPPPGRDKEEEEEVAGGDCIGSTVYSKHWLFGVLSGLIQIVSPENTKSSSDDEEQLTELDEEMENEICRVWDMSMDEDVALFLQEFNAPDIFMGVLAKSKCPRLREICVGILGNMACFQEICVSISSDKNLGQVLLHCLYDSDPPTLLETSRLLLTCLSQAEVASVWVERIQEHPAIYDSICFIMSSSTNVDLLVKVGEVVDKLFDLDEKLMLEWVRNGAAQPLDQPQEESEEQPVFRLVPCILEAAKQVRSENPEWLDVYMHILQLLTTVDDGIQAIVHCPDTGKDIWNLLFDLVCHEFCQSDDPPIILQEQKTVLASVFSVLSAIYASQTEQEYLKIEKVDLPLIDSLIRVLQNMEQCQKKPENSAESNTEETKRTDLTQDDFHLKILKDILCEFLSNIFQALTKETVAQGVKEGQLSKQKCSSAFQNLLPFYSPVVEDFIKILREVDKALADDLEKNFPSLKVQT
UniProt Q9NZJ4: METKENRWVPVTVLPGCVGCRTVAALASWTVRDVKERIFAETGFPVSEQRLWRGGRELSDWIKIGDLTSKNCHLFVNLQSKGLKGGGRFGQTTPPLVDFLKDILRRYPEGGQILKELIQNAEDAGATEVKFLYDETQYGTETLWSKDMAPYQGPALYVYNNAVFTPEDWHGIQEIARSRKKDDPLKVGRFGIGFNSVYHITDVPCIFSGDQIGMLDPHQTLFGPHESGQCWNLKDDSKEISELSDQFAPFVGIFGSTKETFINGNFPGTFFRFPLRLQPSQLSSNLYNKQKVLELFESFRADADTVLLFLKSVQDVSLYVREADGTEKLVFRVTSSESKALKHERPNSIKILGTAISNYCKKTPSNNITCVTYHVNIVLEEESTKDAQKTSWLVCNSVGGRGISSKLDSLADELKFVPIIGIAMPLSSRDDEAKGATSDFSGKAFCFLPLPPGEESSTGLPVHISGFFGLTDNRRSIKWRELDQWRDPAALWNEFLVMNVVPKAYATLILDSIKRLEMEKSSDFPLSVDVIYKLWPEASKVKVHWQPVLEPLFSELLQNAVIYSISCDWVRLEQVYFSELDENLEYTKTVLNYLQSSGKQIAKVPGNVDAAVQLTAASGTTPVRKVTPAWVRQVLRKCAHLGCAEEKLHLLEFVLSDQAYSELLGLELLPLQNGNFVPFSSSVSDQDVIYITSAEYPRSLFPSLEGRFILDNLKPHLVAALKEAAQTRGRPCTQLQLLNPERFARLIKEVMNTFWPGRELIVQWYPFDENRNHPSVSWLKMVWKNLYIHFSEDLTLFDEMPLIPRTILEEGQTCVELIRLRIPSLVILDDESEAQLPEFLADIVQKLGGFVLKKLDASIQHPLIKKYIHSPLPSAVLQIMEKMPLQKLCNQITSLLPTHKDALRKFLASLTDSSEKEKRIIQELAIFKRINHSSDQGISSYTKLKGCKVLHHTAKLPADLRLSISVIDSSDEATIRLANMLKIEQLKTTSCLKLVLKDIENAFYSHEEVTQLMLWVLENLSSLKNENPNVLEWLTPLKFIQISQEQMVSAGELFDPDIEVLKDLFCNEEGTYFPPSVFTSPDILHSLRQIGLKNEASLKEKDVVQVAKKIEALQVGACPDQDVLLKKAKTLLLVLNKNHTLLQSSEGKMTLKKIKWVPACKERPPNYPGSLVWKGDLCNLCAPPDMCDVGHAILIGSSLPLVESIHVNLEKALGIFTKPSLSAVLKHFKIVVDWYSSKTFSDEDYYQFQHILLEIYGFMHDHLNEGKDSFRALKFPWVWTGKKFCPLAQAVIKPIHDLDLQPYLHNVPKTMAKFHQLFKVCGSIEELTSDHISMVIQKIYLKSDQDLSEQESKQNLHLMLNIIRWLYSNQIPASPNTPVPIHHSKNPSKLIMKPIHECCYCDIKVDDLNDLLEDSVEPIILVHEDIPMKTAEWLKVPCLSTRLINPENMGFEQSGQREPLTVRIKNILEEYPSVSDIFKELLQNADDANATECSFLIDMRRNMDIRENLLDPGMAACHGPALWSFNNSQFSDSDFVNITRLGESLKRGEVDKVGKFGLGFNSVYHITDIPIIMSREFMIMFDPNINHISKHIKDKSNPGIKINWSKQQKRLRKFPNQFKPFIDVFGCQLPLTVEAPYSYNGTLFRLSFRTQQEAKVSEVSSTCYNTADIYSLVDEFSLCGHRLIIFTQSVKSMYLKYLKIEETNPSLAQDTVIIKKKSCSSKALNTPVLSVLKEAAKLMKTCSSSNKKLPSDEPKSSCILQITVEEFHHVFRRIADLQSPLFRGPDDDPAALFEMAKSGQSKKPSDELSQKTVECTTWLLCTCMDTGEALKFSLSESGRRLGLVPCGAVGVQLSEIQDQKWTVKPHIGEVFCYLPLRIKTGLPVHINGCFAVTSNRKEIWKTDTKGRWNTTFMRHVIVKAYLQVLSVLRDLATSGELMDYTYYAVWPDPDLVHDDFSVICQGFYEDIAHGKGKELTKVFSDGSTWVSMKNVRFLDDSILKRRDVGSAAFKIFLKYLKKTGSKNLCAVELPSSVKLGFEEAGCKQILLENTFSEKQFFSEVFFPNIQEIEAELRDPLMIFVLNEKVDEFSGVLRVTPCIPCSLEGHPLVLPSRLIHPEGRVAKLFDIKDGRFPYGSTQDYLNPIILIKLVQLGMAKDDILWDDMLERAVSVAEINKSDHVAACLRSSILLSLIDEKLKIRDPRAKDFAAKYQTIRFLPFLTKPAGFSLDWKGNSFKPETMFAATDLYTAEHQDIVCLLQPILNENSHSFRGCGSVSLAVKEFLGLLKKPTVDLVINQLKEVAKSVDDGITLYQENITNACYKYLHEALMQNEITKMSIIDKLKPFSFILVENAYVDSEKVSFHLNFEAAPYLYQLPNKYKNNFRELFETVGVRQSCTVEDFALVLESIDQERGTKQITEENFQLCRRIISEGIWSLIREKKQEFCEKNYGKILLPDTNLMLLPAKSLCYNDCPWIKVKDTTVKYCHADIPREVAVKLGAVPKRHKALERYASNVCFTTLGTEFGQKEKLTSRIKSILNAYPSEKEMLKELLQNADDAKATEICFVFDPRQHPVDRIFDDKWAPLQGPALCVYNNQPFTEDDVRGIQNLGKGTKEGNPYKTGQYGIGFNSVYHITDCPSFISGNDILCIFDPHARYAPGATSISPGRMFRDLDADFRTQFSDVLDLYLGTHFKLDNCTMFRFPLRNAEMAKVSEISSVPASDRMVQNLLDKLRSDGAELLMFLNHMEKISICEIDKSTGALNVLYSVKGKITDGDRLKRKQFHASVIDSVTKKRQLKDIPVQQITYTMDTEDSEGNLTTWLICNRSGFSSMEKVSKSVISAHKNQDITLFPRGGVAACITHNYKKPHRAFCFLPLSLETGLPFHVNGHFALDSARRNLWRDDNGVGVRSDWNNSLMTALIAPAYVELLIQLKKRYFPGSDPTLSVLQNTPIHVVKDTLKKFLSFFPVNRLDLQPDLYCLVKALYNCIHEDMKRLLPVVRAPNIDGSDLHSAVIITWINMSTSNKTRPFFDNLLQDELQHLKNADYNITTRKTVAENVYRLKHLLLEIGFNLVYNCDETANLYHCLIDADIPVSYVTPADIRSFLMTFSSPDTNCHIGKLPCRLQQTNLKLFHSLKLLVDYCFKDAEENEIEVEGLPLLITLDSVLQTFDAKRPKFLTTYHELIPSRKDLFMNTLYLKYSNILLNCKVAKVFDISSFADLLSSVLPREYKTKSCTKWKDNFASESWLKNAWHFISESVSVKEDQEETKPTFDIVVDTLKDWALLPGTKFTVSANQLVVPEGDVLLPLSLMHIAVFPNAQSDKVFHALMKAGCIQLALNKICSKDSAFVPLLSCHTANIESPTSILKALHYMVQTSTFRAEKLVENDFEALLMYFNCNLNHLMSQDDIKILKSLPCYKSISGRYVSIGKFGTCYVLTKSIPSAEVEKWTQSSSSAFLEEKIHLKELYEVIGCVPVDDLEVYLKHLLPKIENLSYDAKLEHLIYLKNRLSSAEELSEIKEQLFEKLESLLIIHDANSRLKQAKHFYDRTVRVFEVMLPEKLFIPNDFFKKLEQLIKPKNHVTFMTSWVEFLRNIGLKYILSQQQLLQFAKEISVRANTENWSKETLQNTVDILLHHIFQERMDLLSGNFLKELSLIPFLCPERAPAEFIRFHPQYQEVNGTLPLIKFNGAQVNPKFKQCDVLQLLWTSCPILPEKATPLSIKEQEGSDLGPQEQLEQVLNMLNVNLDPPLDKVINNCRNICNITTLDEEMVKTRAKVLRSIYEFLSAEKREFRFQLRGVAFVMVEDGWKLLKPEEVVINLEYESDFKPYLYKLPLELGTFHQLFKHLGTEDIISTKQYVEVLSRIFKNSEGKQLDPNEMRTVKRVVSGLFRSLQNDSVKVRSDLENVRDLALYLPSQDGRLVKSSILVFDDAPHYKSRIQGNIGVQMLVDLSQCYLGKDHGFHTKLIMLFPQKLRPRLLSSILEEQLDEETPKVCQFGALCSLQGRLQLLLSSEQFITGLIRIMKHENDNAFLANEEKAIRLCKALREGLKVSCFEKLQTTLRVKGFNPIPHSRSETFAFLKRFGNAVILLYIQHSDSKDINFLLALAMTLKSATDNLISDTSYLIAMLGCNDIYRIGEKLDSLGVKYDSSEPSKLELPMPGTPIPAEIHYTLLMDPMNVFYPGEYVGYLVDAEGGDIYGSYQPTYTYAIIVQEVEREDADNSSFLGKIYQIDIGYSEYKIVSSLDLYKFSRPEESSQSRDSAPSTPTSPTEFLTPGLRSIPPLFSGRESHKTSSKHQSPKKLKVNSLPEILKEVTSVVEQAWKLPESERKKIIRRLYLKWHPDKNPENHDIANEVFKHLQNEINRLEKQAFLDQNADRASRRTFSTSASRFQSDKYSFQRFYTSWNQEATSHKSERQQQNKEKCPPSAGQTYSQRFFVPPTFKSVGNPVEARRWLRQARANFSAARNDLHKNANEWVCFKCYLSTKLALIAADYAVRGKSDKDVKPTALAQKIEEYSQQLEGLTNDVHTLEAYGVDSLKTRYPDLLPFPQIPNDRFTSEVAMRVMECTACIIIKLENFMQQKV
UniProt A6NKF1: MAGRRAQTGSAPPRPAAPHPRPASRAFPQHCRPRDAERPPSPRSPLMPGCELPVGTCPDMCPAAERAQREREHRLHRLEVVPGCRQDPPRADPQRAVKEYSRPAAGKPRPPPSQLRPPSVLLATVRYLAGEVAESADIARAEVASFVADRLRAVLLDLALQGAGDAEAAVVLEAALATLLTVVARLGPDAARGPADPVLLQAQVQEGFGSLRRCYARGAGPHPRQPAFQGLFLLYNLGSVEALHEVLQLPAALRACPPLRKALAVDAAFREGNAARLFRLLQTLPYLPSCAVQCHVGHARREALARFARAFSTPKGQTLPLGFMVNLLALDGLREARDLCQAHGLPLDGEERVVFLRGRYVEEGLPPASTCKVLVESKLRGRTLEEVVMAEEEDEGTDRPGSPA
UniProt Q9BZR6, 39-61: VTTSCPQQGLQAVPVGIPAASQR
UniProt Q9BUL9, 9-39: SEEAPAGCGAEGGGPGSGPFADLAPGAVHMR

Some of the results follow. The data scatter; read single values as rough.
The targets below were run with ClCC(=O)N[C@H]1CCCc2ccccc12 (assay: log2 mean competition ratio of IA-DTB cysteine labelling (DMSO/compound) (log2 ratio); higher = stronger cysteine engagement by compound). Settings: 200 µM; treatment time: 4 h; cell line lysate: HEK293T.
Description: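 IA-DTB competitive cysteine chemoproteomics in HEK293T RIPA lysate. Lysates were treated with compound 29 or 30 at 50 or 200 µM for 4 h, then IA-DTB (500 µM, 1 h), trypsin-digested, NeutrAvidin-enriched and analysed by diaPASEF. Competition ratio = intensity DMSO / intensity compound (n=4 treated, n=64 DMSO); binding: mean log2 CR ≥ 1 and p ≤ 0.05 plus QC filters. Target is the cysteine site.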
RXRA C269 (UniProt P19793) was tested, and the “log2 mean competition ratio” value was -0.161.
For RUVBL1 C49 (UniProt Q9Y265), the “log2 mean competition ratio” value was 0.0341.
SACM1L C445 (UniProt Q9NTJ5) was tested, and the “log2 mean competition ratio” value was -0.0941.
RNF19B C290 was tested, and the “log2 mean competition ratio” value was -0.0495.
For RPAP2 C358 (UniProt Q8IXW5), the “log2 mean competition ratio” value was 0.154.
With RPS28 C27 (UniProt P62857) the “log2 mean competition ratio” value was -0.366.
RNF20 C905 (UniProt Q5VTR2) was tested, and the “log2 mean competition ratio” value was -0.0554.
With RPS15A C72 (UniProt P62244) the “log2 mean competition ratio” value was -0.243.
RNF220 C382 (UniProt Q5VTB9) was tested, and the “log2 mean competition ratio” value was -0.107.
SAAL1 C366 (UniProt Q96ER3) was tested, and the “log2 mean competition ratio” value was 0.0883.
RPS16 C25 (UniProt P62249) was tested, and the “log2 mean competition ratio” value was -0.437.
For RPS11 C60 (UniProt P62280), the “log2 mean competition ratio” value was 0.384.
RTN4 C1101 was tested, and the “log2 mean competition ratio” value was -0.199.
In the case of SACS C814 (UniProt Q9NZJ4), the “log2 mean competition ratio” value is reported as -0.337.
With SAC3D1 C371 (UniProt A6NKF1) the “log2 mean competition ratio” value was -0.263.
For RTF2 C262 (UniProt Q9BY42), the “log2 mean competition ratio” value was -0.211.
With RNF128 C303 the “log2 mean competition ratio” value was -0.0664.
RPP30 C225 was tested, and the “log2 mean competition ratio” value was 0.0676.
With RNF34 C137 (UniProt Q969K3) the “log2 mean competition ratio” value was -0.341.
In the case of RTN4R C43 (UniProt Q9BZR6), the “log2 mean competition ratio” value is reported as 0.0881.
With RUSF1 C201 the “log2 mean competition ratio” value was -0.00779.
In the case of RPP25 C16 (UniProt Q9BUL9), the “log2 mean competition ratio” value is reported as 0.117.
In the case of RPL5 C76 (UniProt P46777), the “log2 mean competition ratio” value is reported as -0.468.
In the case of RNF213 C1064, the “log2 mean competition ratio” value is reported as 0.00748.
RPP25 C70 (UniProt Q9BUL9) was tested, and the “log2 mean competition ratio” value was 0.188.
For RPS6KC1 C733 (UniProt Q96S38), the “log2 mean competition ratio” value was 0.589.
RPS19BP1 C104 (UniProt Q86WX3) was tested, and the “log2 mean competition ratio” value was -0.0466.
With RRBP1 C1216 (UniProt Q9P2E9) the “log2 mean competition ratio” value was -0.221.
RPP25L C70 (UniProt Q8N5L8) was tested, and the “log2 mean competition ratio” value was -0.226.
